# PubChem BioAssay AID504467 (National Center for Advancing Translational Sciences (NCATS), 2011)
# Hit rate of the full screen: of about 330,000 compounds, about 7,700 (2.3%) were called active. Inconclusive results, whose numbers are uncertain, are shown with a selection of clear calls. Calls follow the shape of the dose curve; as a rule, active = well fitted inhibition curve with a large enough effect; inconclusive = small, poorly fitted or top-dose-only effect, or effect the other way; inactive = flat fitted curve, though single readings scatter. Where the call is inconclusive, the potency comes from a doubtful curve fit.
# Assay: qHTS screen for small molecules that inhibit ELG1-dependent DNA repair in human embryonic kidney (HEK293T) cells expressing luciferase-tagged ELG1; also: nearly all actives have a fitted effect of over 55% in size
# Conditions: HEK293T ELG1-luciferase reporter, luminescence, 16 h, DNA damage induced by 5-fluorouridine; activity change, negative = inhibition: at 46.1 µM (top of the series)
# In short: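 Luminescence from the luciferase reporter, measured 30 min after ONE-Glo reagent at room temperature, was the read-out. Beforehand, 2,000 cells per well were exposed for 16 hr at 37 °C to 5-fluorouridine together with compound or vehicle.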
# % is scaled to controls: 0 for no effect and ±100 for the full control effect; potency is read from the fitted curve at half-maximal effect.
Structure (SMILES),Potency,"activity change, negative = inhibition"
COc1ccccc1CNC(=O)CCS(=O)(=O)c1cccs1,"inconclusive: 16.4 µM [activator, partial curve, poor fit]",
C(=N\Nc1nncc2ccccc12)/c1ccccn1,"inconclusive: 1.64 µM [activator, full curve]",
Cc1nnc2ccc(-c3cccc(NC(=O)c4ccco4)c3)nn12,"inconclusive: 20.6 µM [activator, partial curve]",
Cc1nnc(SCC(=O)Nc2ccc(C(N)=O)cc2)n1-c1ccccc1,"inconclusive: 14.6 µM [activator, single point]",
COc1ccc(OCC(=O)N(Cc2ccc(C)o2)C2CCS(=O)(=O)C2)cc1 (stereo not drawn),"inconclusive: 11.6 µM [activator, partial curve, poor fit]",
CCOC(=O)C1CCN(C(=O)CSc2cc(=O)n(CC)c3ccccc23)CC1,"inconclusive: 7.31 µM [activator, partial curve]",
CCN(CC)Cc1c(O)c(Cl)cc2c3c(c(=O)oc12)CCCC3,,inactive: -8.14%
CC(Cc1cccs1)NC(=O)c1cccc(Cl)c1 (stereo not drawn),"inconclusive: 16.4 µM [activator, partial curve]",
CS(=O)(=O)c1ccc(-c2sc3ccccc3c2C(=O)NCCCN2CCOCC2)cc1,"inconclusive: 29.1 µM [inhibitor, partial curve, poor fit]",
COc1cc2ccccc2cc1C(=O)NCC(c1cccs1)N(C)C (stereo not drawn),"inconclusive: 5.8 µM [activator, single point]",
CCCCn1c(SCc2ncc(-c3ccccc3)o2)nc2cc(S(N)(=O)=O)ccc21,"inconclusive: 20.6 µM [inhibitor, single point]",
O=C(COC(=O)c1ccccc1)NCC1CCCO1 (stereo not drawn),"inconclusive: 13 µM [activator, single point]",
S=C(NCc1ccccc1)N/N=C/c1cccs1,"inconclusive: 23.1 µM [inhibitor, partial curve, poor fit]",
Cc1cc(C)nc(NC(=O)c2cc(-c3ccc(C)s3)nc3ccccc23)c1,"inconclusive: 20.6 µM [inhibitor, partial curve]",
COc1ccc(OC(=O)C(C)N2C(=O)c3ccccc3C2=O)cc1 (stereo not drawn),,inactive: -12.4%
Oc1ccc(CN2CCCCC2)nc1-c1ccccc1,"inconclusive: 32.6 µM [activator, partial curve, poor fit]",
N#Cc1ccccc1NC(=O)CSc1nnc(-c2ccccc2O)n1-c1ccccc1,"inconclusive: 29.1 µM [inhibitor, single point]",
Cn1ncc(C#N)c1/N=C/N1CCCCCC1,"inconclusive: 29.1 µM [inhibitor, single point]",
Cc1c(C(=O)/C=C/N(C)C)nnn1-c1ccc(F)c(Cl)c1,"inconclusive: 18.3 µM [activator, single point]",
COc1ccccc1CNC(=O)c1cc(C(C)=O)c[nH]1,"inconclusive: 16.4 µM [activator, partial curve, poor fit]",
CCOC(=O)C1CCN(C(=O)CSCCSCC(=O)N2CCC(C(=O)OCC)CC2)CC1,"inconclusive: 10.3 µM [inhibitor, partial curve]",
COc1cc(OC)c(OC)cc1/C=N/n1c(-c2n[nH]c3c2CCC3)n[nH]c1=S,"inconclusive: 13 µM [inhibitor, partial curve]",

# Reprinted at random: two entries already listed, in no set order.
Structure (SMILES),Potency,"activity change, negative = inhibition"
S=C(NCc1ccccc1)N/N=C/c1cccs1,"inconclusive: 23.1 µM [inhibitor, partial curve, poor fit]",
C(=N\Nc1nncc2ccccc12)/c1ccccn1,"inconclusive: 1.64 µM [activator, full curve]",

# Later entries:

Structure (SMILES),Potency,"activity change, negative = inhibition"
Cc1ccn2cc(C(=O)Nc3ccc4c(c3)OCCO4)nc2c1,"inconclusive: 0.58 µM [activator, full curve]",
CCN(CC)c1ccc(NC(=O)c2cccnc2)c(C)c1,,inactive: -6.97%
CCOC(=O)c1ccccc1NC(=O)COC(=O)CCNS(=O)(=O)c1ccccc1,,inactive: 12.6%
CCCCCCc1ccc(N2C[C@H](Cc3ccccc3)[C@@H](CC(=O)NCc3ccc(OC)cc3)C2=O)cc1,,inactive: -5.28%
O=C(Cn1ncc(Cl)c(Cl)c1=O)Nc1ccc2c(c1)OCO2,active: 6.51 µM,
CN(CC(=O)Nc1ccccc1C(F)(F)F)Cc1c(O)ccc2ccccc12,,inactive: -14.4%
CCOC(=O)C1=CC[C@H]2c3c(c4ccc(OC)cc4n3C)C(=O)C1N2S(=O)(=O)c1ccc(C)cc1,,inactive: -10.5%
C/C(=N/NC(=O)c1ccoc1C)c1ccc(N2CCOCC2)cc1,"inconclusive: 18.4 µM [activator, partial curve]",
CC1(OC(=O)C2CCCC2)C(=O)C=C2C=C(c3ccsc3)N(c3ccccc3)C=C2C1=O (stereo not drawn),,inactive: -13.2%
COc1ccc(Nc2ncc(C(=O)N3CCN(c4ccccc4OC)CC3)c3ccccc23)cc1,"inconclusive: 18.4 µM [inhibitor, single point]",
CC(=O)N(C)c1ccc(N=NC2C(=O)N(C(N)=S)N=C2C)cc1 (stereo not drawn),"inconclusive: 18.3 µM [activator, partial curve]",
Cc1ccc2nc(N=C(N)N)nc(C)c2c1,,inactive: -26.5%
Cc1ccc(S(=O)(=O)Nc2ccc(NC(=O)c3ccc(F)cc3)cc2)cc1,"inconclusive: 6.51 µM [inhibitor, single point]",
CC1CCN(C(=O)CSc2nnc(Cc3cccn3C)n2CCc2ccccc2)CC1,,inactive: 12.4%
COc1cccc(/C=N/NC(=O)c2c(-c3ccccc3)noc2C)c1O,"inconclusive: 10 µM [inhibitor, partial curve]",
O=C(/C=C/c1ccco1)NC(=S)Nc1cc(-c2nc3ccccc3s2)ccc1Cl,"inconclusive: 4.61 µM [activator, partial curve]",
COC(=O)[C@]1(CC(C)C)N[C@H](c2ccc(-c3ccc(C(C)=O)cc3)cc2)[C@@H]2C(=O)N(C)C(=O)[C@@H]21,"inconclusive: 23.1 µM [activator, partial curve, poor fit]",
COC(=O)c1nccc2c1[nH]c1ccccc12,,inactive: -1.35%
CCOc1cc(S(=O)(=O)N2CCN(c3ccc(F)cc3)CC2)c(OCC)cc1-n1cnnn1,"inconclusive: 18.4 µM [inhibitor, partial curve, poor fit]",
CCCC(=O)Nc1ccc(NC(=O)c2ccccn2)cn1,"inconclusive: 4.61 µM [activator, full curve, poor fit]",
CN(CC(=O)Nc1cccc(F)c1)C(=O)c1cc(-c2cccs2)nn1-c1ccccc1,"inconclusive: 7.3 µM [inhibitor, single point]",
